Measured values reported in PMC7862700.
The list shows a part of the results, in another mix than the full data. For part of these data: At the low end of the ranking, values are background and their order means little. Some of the results follow. For part of these data: The source does not settle which construct or isoform was used.

Chains of the proteins cited; added tags and fusions are not shown. Lines headed by an entry give the natural chain unless they say otherwise; changes in a name come on top.
UniProt P32519: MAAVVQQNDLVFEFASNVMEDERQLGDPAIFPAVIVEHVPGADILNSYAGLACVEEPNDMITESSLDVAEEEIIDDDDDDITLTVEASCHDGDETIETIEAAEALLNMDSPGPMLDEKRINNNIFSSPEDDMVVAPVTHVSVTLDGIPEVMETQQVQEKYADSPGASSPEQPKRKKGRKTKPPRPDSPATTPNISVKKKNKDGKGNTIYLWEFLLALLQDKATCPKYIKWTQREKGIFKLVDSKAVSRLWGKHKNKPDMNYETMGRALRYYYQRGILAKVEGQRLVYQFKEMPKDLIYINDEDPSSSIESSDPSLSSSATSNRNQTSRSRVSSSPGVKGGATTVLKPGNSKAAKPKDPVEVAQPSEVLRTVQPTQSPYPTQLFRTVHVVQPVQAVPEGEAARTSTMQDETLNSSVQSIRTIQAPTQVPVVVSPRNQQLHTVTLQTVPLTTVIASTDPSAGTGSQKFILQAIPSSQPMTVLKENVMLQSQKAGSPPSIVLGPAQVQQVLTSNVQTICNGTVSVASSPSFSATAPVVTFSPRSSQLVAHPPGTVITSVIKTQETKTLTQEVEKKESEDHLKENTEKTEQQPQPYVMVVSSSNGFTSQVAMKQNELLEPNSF
UniProt P50549: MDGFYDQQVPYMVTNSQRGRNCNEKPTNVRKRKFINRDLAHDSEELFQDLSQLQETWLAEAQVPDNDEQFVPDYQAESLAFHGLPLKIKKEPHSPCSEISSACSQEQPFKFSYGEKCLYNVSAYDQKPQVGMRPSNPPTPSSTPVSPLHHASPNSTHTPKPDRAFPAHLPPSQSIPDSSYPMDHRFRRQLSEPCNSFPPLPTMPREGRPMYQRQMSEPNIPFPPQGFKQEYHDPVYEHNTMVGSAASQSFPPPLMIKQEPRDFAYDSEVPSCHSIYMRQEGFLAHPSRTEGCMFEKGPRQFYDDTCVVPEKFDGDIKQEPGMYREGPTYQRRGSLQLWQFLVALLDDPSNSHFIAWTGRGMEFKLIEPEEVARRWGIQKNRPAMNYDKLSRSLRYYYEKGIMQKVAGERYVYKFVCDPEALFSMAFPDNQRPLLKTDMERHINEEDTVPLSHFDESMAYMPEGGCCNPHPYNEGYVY

Key:
Test in all cases: DAPPL (digital affinity profiling via proximity ligation, sequencing)
Conditions in all cases: 10 mM Tris-HCl pH 7.5, 50 mM NaCl, 1 mM DTT, 4% glycerol, room temperature, 30 min; GST-TFs on glutathione beads, 16-mer random dsDNA library, 0.1% …; high values mean tight binding; double strand, one strand shown; scale: fold enrichment (6-mer frequency, TF over GST control)
ERG = molecular target: T1, ERG (UniProt P11308)
T1 sequence: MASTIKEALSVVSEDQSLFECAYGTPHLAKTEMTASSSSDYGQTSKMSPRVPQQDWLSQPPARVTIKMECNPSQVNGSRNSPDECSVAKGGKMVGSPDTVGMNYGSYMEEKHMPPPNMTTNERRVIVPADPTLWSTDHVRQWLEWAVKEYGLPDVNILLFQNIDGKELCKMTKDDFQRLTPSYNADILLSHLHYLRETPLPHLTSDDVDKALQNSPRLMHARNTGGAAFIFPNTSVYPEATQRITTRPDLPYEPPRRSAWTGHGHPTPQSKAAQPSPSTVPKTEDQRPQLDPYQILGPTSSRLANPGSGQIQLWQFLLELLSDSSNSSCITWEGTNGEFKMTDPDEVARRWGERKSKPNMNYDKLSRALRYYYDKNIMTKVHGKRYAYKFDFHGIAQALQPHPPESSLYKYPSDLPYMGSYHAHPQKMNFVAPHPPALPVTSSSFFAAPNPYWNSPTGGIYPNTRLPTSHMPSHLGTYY

ELF1 = ELF1 (UniProt P32519)
ELK4 = molecular target: T2, ELK4 (UniProt P28324-2)
T2 sequence: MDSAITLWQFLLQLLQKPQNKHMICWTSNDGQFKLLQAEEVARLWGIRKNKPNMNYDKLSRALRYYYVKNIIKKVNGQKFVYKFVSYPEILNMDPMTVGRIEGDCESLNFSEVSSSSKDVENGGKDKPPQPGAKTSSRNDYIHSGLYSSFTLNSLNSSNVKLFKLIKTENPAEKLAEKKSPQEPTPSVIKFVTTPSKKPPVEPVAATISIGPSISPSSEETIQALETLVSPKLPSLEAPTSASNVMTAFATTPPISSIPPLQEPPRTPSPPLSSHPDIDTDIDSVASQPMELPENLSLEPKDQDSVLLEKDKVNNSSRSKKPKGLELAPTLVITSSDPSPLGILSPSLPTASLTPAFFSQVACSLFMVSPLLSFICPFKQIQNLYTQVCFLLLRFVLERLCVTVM

ETV4 = molecular target: T3, ETV4 (UniProt P43268)
T3 sequence: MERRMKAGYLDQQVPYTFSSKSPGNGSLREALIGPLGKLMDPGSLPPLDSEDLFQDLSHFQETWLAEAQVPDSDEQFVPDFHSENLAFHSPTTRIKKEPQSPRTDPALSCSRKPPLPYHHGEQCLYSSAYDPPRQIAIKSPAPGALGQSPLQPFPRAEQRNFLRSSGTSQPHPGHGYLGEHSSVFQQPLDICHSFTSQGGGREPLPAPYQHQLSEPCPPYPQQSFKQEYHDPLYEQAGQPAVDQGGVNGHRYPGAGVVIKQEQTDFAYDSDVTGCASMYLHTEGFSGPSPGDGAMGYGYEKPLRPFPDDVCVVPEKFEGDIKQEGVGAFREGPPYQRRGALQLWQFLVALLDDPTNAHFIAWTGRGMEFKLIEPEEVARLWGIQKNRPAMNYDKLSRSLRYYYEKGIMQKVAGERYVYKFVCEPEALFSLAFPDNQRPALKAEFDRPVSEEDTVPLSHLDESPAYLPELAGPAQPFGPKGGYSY

ETV1 = ETV1 (UniProt P50549)
ERF = molecular target: T4, ERF (UniProt P50548)
T4 sequence: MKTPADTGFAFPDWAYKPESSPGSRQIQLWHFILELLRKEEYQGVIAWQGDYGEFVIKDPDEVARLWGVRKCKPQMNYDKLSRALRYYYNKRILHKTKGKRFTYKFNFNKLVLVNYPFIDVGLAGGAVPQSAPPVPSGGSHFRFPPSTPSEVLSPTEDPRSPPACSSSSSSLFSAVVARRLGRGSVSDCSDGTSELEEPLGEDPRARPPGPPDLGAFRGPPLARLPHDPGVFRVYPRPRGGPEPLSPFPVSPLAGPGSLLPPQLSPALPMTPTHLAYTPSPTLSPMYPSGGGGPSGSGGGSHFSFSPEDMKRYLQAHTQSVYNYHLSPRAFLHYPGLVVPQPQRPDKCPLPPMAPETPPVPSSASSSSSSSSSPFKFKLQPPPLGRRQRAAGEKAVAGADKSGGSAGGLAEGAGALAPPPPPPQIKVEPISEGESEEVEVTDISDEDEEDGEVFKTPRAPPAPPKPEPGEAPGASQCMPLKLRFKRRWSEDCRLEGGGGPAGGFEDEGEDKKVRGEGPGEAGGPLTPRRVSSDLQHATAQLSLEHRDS

Row | Sequence | binding signal (ERG) | binding signal (ELF1) | binding signal (ELK4) | binding signal (ETV4) | binding signal (ETV1) | binding signal (ERF)
1 | CGAACG | 0.983 | 0.974 | 0.901 | 0.985 | 0.989 | 1.11
2 | GTGGTT | 0.904 | 0.859 | 0.88 | 0.885 | 0.88 | 0.984
3 | ACAAGG | 0.979 | 0.989 | 0.879 | 0.906 | 0.96 | 0.953
4 | TGGCGT | 0.994 | 0.931 | 0.912 | 0.932 | 0.923 | 0.964
5 | ATGCCT | 1.48 | 1.35 | 1.49 | 1.32 | 1.33 | 1.42
6 | TTGGAT | 0.959 | 1.01 | 1.04 | 1.05 | 0.976 | 0.925
7 | AGCTTG | 0.892 | 0.991 | 0.898 | 0.965 | 0.932 | 0.96
8 | AGTACG | 0.92 | 0.838 | 0.873 | 0.89 | 0.839 | 0.785
9 | TCGTCG | 0.889 | 0.924 | 0.944 | 0.864 | 0.957 | 0.939
10 | ACTGGG | 0.872 | 0.836 | 0.852 | 0.851 | 0.864 | 0.831
11 | GATAAC | 0.908 | 0.955 | 0.926 | 0.954 | 0.906 | 0.893
12 | AGTACC | 0.977 | 0.901 | 0.958 | 0.931 | 0.977 | 0.949
13 | GTGACT | 0.916 | 0.909 | 0.9 | 0.987 | 0.946 | 0.856
14 | AGAATC | 0.966 | 0.994 | 0.997 | 0.877 | 0.938 | 0.988
15 | TAAGAC | 0.917 | 0.904 | 0.865 | 0.893 | 0.818 | 0.856
16 | TAGGCC | 0.893 | 0.965 | 0.951 | 0.966 | 0.97 | 0.994
17 | TCGCGA | 0.897 | 0.886 | 0.915 | 0.882 | 0.919 | 0.821
18 | GACTAT | 0.953 | 0.954 | 0.884 | 0.999 | 0.894 | 0.982
19 | ATCGCG | 0.931 | 0.976 | 1 | 0.892 | 0.987 | 0.885
20 | GACCCC | 0.94 | 0.928 | 0.918 | 0.956 | 0.946 | 0.859
21 | AGAGAT | 0.934 | 0.897 | 0.95 | 0.912 | 0.902 | 0.883
22 | CGAGAA | 0.856 | 0.829 | 0.767 | 0.927 | 0.849 | 0.882
23 | CCAAAG | 0.887 | 0.975 | 0.955 | 0.974 | 0.888 | 0.844
24 | CCGCGG | 0.958 | 0.843 | 0.77 | 0.887 | 0.948 | 0.869

Another view of some results above:
Row	Sequence	binding signal (ERG)	binding signal (ELF1)	binding signal (ELK4)	binding signal (ETV4)	binding signal (ETV1)	binding signal (ERF)
2	GTGGTT	0.904	0.859	0.88	0.885	0.88	0.984
3	ACAAGG	0.979	0.989	0.879	0.906	0.96	0.953
4	TGGCGT	0.994	0.931	0.912	0.932	0.923	0.964
5	ATGCCT	1.48	1.35	1.49	1.32	1.33	1.42

Later entries.

Row | Sequence | binding signal (ERG) | binding signal (ELF1) | binding signal (ELK4) | binding signal (ETV4) | binding signal (ETV1) | binding signal (ERF)
25 | CAGATA | 0.961 | 0.933 | 0.945 | 0.93 | 0.978 | 0.926
26 | AAGGGA | 0.922 | 0.862 | 0.812 | 0.856 | 0.935 | 0.843
27 | CAAAGT | 0.947 | 1.03 | 0.954 | 0.962 | 0.969 | 0.953
28 | CTAAGG | 0.893 | 0.935 | 0.99 | 0.879 | 1.01 | 0.9
29 | GCGGCA | 0.898 | 0.875 | 0.814 | 0.921 | 0.776 | 0.802
30 | CTGGCG | 0.831 | 0.839 | 0.875 | 0.781 | 0.849 | 0.875
31 | CCAAGT | 0.88 | 0.932 | 0.907 | 0.894 | 0.808 | 0.999
32 | AGGATT | 0.87 | 0.933 | 0.926 | 0.92 | 0.95 | 0.908
33 | CTAGGA | 0.872 | 0.909 | 0.937 | 0.884 | 0.893 | 0.87
34 | GAAGGT | 0.845 | 0.892 | 0.95 | 0.869 | 0.878 | 0.922
35 | AGGTGT | 0.827 | 0.763 | 0.807 | 0.825 | 0.884 | 0.827
36 | GGGATT | 0.809 | 0.872 | 0.886 | 0.809 | 0.906 | 0.797
37 | GCAAAG | 0.932 | 0.962 | 0.998 | 0.913 | 0.975 | 0.971
38 | CGAAGA | 0.785 | 0.762 | 0.754 | 0.793 | 0.821 | 0.82
39 | GTGTAA | 0.955 | 0.875 | 0.868 | 0.972 | 0.886 | 0.905
40 | CCAGAT | 0.94 | 0.91 | 0.937 | 0.824 | 0.953 | 0.929
41 | GGATAA | 0.805 | 0.792 | 0.761 | 0.775 | 0.819 | 0.759
42 | TTGGAA | 0.997 | 0.95 | 0.83 | 0.974 | 0.992 | 0.963
43 | AAAGGC | 0.899 | 0.997 | 0.878 | 0.973 | 0.984 | 0.931
44 | GGCAGC | 0.984 | 0.94 | 0.959 | 0.954 | 0.916 | 0.872
45 | GTATCG | 0.971 | 0.949 | 0.954 | 0.868 | 0.955 | 0.91
46 | TCAAGA | 0.869 | 0.888 | 0.818 | 0.827 | 0.838 | 0.851
47 | GAGAAA | 0.697 | 0.743 | 0.65 | 0.689 | 0.699 | 0.771
